Measured values as given in PubChem BioAssay AID1347423 (Functional Genomics Laboratory (NCATS/FGL), 2020).
The whole screen tested about 52,000 sequences, of which about 210 (0.4%) were called active.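 How the source made its calls: active means gene whose silencing raises cell survival under the drug, median off-target-corrected z-score across its silencing RNAs 2 or more; inactive means the rest.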 This is one part of the list.

assay: Resistance to Poly (ADP-Ribose) Polymerase inhibitor: Gene Identification via Genome-wide siRNA Screen; conditions: mouse BRCA2 R2336H ES cells, olaparib, CellTiter-Glo viability; hits give high values
Method in brief: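 Genome-wide siRNA screen (3 siRNAs/gene, 20 nM) in mouse ES cells carrying hypomorphic BRCA2 R2336H; olaparib 500 nM added 48 h post-transfection, CellTiter-Glo viability 72 h later. Normalized to plate-median negative control; MAD z-scores, gene median, seed-adjusted.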

| Sequence | z-score |
| --- | --- |
| CGAGCAGUGAAGACCAUCUTT against Klk14 | inactive: -2.31 |
| GGCUGUUCGGGUGACUAUUTT against Il17re | inactive: -1.71 |
| GGACAGGACAGCUUUGCACTT against 4921537P18Rik | inactive: -0.153 |
| GCCACUACUUAGUGUCUUCTT against Plcd | inactive: 0.807 |
| GGAUGAGAACUUCAUCCUATT against Ppia | inactive: 0.558 |
| GGCAAAAUAAAGCUUAAGGTT against Robo3 | inactive: -0.675 |
| GGCCACCAUCCAUGAGAACTT against Kcne2 | inactive: 0.363 |
| GCUAGUUCUGAGAGACAGATT against Mup5 | inactive: -1.72 |
| GGAGAAGAUGUGGAGACAUTT against Edf1 | inactive: 2.39 |
| GAGAAUCCAGAACUCCAAUTT against Olfr952 | inactive: -0.963 |
| GGAUCCAGUUUUGUUUUUGTT against Slc28a2 | inactive: 0.113 |
| CCAUGCAUGUUUUAGGCCATT against AI987692 | inactive: 1.54 |
| GCCUGGAUAGGCUUAAAGATT against Dpep2 | inactive: 0.979 |
| GGUCUUUUCACAUACAUAUTT against Fstl1 | inactive: -1.99 |
| GCUUUCGGACUACAGAGGGTT against Prdx2 | inactive: 0.607 |
| GGAUCUAAAGGUGAGUCAATT against Wdr40b | inactive: -0.275 |
| GGUCCAAUUAAGGUUUUGUTT against Pias1 | inactive: 1.57 |
| GCACCAAGGUCCUACUUGATT against BC049730 | inactive: 2.03 |
| GGAUAUAAUAUCCUCGUAUTT against 2310045A20Rik | inactive: -0.603 |
| GGAGAUGGAGGAGAAAGCATT against Art5 | inactive: -0.246 |
| GCACUUCCGACUUUUUCACTT against 9030224M15Rik | inactive: 0.317 |
| GUAUCAUACAAUGAUGUCCTT against Olfr176 | inactive: 0.628 |

| Sequence | z-score |
| --- | --- |
| GGCUCAAGGCACUCAAUACTT against Olfr550 | inactive: 0.719 |
| GCUACUAAAUUCUGUUUUGTT against 8430427H17Rik | inactive: 1.94 |
| AACCAGAGGUCCUAAAUACTT against Mmp28 | inactive: 1.09 |
| CCAAACACAGUUGCACAGGTT against Apg4a | inactive: -0.27 |
| CGGACUUACCAAAAGCGCATT against Lss | inactive: 0.0975 |
| GGAAAUUUGAGACUCUGCUTT against 4933414E04Rik | inactive: 0.909 |
| CGAGAUAGAGUACAUCUUCTT against Vegfa | inactive: 0.218 |
| GGGAAGUCUACAUAAAUCCTT against Gm1012 | inactive: -0.0833 |
| CCACUUCUCUAAGACAAUCTT against Acox3 | inactive: -0.352 |
| GGUGGCUUAGCACGAAGCATT against Elk1 | inactive: -1.08 |
| CCCAAACAACUUGUAAAUCTT against 2310005N03Rik | inactive: 0.668 |
| CCUGAAUUAUGUGUAACUUTT against Ywhab | inactive: -0.339 |
| GCAGCAUCCCUACACGUUCTT against Galnt2 | inactive: 0.516 |
| GGAGCCAGAACUAGAAGCUTT against Nol3 | inactive: 0.382 |
| GGAGUAAAGACAUUCAGGATT against C330026N02Rik | inactive: 0.32 |
| GCAAUCCAAGCCAAACUCCTT against B130021E18 | inactive: -0.69 |
| GGUGUCAGAACAAGGUUUGTT against Pdcd5 | inactive: -0.71 |
| GGUUCUAUGGCUCUCAAGATT against Ptgir | inactive: 1.09 |
| GCUGGUUAUUCUCUUAUAGTT against Sdpr | inactive: -0.511 |
| CCACUCUCUAGUCCUCAACTT against Svs3 | inactive: 0.223 |
| CCUUUCCAUCCCAGAAAAATT against Flj39647 | inactive: 0.958 |
| GGUAUUUGCUGAACUGUUUTT against Ckmt1 | inactive: -0.979 |

Single entries from the entries so far:
z-score with GGAUCCAGUUUUGUUUUUGTT against Slc28a2 is entered as inactive: 0.113
z-score with GCCUGGAUAGGCUUAAAGATT against Dpep2 is entered as inactive: 0.979

Remaining list, next part:

| Sequence | z-score |
| --- | --- |
| GGUCUGGUGGAGUUGAGAATT against 2610001E17Rik | inactive: -0.26 |
| GGAGGUGCUAAGGAGAAGATT against Plagl2 | inactive: -0.779 |
| GGAAAACUUGCUUACGCAUTT against Zfp146 | inactive: 0.589 |
| CCAUUGGUACUCUUUCCAATT against 3000002B06Rik | inactive: -0.588 |
| GGUGAGACAAAGGAACAAGTT against 1810057C19Rik | inactive: 0.8 |
| CCUUAAGCUAUCAAAUAAGTT against Zfp131 | inactive: 0.753 |
| GGAGAUUCUCCAUAACCUGTT against 2410006N06Rik | inactive: 2.37 |
| GGGCUAAGGCAAAAACUGATT against LOC545554 | inactive: -0.24 |
| GGAAUAUCAGAAUACCAUCTT against 2610019P18Rik | inactive: 0.165 |
| GGAAUGCUACUGCUCUCCUTT against P518 | inactive: 1.63 |
| CGGAUGUUCCAUUUGCUGATT against Sprr2g | inactive: -0.0898 |
| CGUGUAGACUUUGAGACGUTT against BC037527 | inactive: 2.48 |
| CCUUAAAUGUGGACCAUAATT against A730069N07Rik | inactive: 1.68 |
| GGUCAAGACACAGUUUAACTT against Tgifx1 | inactive: 1.15 |
| GGUGAAUAUUUCAAUGGCCTT against Klhdc4 | inactive: 0.935 |
| GGACUACUUCCCAAGAAUUTT against Gle1l | inactive: -0.349 |
| GGGACAGUCUUCAGUGACATT against 0610037L13Rik | inactive: -2.25 |
| GGCUAUUAUUGAGAGUUCATT against 8430437G11Rik | inactive: 0.104 |
| GGCAGGAACUACCUCUUCATT against Sema5b | inactive: 0.335 |
| GCGGGAAGCCUUUAUCUCUTT against Aanat | inactive: -0.477 |
| GCUCAGUCAUGUCUUGUGCTT against Tagap | inactive: -1.14 |
| GGACAAUUUAUUCCAGUUUTT against Dlx1 | inactive: -1.95 |

Shown in CSV form: entries from further up
Sequence,z-score
CCUUAAAUGUGGACCAUAATT against A730069N07Rik,inactive: 1.68
GGUCAAGACACAGUUUAACTT against Tgifx1,inactive: 1.15
GGUGAAUAUUUCAAUGGCCTT against Klhdc4,inactive: 0.935
